# In the supplement of paper PMC6411743:
# Protein sequences, listed by entry. Tags and fused reporters are not part of them. Lines headed by an entry give the natural chain unless they say otherwise; changes in a name come on top.
# UniProt O75400: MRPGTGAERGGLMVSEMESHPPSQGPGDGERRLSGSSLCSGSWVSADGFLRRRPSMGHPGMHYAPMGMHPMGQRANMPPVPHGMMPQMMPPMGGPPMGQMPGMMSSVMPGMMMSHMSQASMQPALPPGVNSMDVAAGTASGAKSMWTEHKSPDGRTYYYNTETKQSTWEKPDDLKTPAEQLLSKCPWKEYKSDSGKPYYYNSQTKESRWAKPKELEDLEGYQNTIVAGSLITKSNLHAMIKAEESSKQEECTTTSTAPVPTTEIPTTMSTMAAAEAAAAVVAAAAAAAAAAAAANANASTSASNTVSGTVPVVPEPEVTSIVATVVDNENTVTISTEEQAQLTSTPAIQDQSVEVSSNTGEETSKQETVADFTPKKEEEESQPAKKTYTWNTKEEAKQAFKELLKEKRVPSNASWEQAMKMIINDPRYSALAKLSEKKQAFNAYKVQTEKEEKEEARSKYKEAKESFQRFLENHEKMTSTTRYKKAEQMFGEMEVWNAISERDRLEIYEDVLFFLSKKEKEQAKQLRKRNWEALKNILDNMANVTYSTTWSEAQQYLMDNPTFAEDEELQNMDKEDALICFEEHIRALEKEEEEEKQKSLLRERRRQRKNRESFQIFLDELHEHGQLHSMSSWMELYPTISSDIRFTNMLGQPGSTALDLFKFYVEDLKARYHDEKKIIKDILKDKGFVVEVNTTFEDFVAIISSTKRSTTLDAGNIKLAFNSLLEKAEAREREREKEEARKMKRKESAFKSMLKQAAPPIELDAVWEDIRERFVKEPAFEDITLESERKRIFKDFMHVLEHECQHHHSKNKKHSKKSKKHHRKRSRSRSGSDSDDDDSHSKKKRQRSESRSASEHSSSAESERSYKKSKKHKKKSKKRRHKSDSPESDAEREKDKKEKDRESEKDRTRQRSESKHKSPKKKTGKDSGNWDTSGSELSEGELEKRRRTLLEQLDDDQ
# UniProt O95619, whole entry: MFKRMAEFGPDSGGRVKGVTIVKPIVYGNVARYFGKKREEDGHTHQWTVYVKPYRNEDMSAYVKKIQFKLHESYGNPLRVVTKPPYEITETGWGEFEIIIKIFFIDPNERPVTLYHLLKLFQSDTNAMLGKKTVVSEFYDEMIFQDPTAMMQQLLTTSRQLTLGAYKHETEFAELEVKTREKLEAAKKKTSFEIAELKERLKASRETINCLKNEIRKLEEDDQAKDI
# UniProt O60256: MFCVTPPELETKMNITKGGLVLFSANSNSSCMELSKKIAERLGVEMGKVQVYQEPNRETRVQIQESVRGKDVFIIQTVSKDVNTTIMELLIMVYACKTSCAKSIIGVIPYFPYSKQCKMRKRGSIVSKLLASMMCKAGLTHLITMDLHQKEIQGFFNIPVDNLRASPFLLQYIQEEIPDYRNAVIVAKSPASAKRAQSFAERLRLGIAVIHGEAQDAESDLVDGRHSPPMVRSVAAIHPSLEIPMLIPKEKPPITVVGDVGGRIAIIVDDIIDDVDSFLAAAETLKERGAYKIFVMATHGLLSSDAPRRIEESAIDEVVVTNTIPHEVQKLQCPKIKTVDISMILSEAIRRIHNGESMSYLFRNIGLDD
# UniProt O75182: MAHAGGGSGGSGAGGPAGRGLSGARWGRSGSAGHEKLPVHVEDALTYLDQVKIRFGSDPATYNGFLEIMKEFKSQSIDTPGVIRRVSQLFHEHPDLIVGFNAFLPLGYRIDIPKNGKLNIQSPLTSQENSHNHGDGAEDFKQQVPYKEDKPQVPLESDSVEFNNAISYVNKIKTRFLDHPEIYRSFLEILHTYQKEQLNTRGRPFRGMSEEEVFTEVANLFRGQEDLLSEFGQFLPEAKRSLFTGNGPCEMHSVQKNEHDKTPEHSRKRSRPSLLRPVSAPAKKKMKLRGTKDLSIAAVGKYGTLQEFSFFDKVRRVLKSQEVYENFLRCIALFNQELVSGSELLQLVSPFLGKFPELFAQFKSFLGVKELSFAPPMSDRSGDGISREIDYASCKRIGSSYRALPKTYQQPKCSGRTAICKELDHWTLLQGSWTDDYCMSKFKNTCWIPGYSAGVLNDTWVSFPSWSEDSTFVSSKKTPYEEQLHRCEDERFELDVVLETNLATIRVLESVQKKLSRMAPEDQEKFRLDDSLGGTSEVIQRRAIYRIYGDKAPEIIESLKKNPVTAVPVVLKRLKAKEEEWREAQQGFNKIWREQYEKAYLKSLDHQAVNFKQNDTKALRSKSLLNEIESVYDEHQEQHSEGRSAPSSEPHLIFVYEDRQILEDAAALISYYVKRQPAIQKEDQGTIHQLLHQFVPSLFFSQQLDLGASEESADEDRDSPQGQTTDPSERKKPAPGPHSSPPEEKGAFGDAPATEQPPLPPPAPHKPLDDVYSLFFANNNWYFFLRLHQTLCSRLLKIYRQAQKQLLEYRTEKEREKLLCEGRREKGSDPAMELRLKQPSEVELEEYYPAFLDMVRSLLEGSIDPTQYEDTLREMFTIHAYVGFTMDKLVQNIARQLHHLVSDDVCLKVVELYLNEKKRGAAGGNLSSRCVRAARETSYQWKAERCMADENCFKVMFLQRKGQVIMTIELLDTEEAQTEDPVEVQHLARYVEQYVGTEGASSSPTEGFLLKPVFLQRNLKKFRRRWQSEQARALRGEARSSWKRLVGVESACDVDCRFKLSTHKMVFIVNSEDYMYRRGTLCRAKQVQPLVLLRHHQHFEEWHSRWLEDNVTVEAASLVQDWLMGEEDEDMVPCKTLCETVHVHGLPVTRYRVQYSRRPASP
# UniProt O95644: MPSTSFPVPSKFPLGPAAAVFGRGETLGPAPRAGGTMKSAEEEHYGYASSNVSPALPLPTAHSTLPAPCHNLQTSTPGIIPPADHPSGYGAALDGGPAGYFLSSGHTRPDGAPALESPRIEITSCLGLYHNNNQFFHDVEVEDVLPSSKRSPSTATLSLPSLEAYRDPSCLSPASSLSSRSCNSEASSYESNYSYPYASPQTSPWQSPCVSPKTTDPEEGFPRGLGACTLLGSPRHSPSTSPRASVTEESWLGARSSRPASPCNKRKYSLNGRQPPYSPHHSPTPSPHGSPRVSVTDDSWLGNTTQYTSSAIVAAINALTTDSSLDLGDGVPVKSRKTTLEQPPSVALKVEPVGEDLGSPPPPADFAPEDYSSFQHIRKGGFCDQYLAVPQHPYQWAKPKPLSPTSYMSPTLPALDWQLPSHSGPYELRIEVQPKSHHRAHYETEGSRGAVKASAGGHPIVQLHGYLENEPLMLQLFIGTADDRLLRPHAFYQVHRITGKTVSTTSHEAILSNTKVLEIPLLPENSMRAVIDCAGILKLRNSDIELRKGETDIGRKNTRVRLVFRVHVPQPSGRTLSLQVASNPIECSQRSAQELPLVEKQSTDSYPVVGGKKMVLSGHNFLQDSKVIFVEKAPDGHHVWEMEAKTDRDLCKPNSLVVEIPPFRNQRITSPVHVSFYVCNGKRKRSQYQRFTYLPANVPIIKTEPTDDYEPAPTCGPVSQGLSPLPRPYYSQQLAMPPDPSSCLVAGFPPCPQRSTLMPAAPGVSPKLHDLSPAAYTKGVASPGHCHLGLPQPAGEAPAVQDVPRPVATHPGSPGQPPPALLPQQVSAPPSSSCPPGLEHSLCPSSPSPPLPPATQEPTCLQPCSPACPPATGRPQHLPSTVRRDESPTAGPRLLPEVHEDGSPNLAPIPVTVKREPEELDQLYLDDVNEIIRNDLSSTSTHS
# UniProt O60234, whole entry: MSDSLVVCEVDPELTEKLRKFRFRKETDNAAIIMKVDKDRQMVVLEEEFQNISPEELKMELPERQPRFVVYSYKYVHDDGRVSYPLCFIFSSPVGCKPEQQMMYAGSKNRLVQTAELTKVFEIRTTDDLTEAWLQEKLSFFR
# UniProt O75570: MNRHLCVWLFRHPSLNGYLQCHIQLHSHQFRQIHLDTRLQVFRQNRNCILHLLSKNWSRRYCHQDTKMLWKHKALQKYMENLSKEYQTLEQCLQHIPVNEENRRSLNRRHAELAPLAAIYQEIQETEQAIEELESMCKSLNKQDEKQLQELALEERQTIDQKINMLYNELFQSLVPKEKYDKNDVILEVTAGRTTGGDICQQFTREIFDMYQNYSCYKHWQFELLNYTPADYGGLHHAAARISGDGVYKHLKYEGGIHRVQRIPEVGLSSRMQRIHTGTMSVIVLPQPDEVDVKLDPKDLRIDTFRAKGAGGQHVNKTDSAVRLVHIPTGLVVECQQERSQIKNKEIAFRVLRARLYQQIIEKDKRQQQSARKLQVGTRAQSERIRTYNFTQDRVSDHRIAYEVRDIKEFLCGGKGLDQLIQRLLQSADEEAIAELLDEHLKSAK
# UniProt O95396: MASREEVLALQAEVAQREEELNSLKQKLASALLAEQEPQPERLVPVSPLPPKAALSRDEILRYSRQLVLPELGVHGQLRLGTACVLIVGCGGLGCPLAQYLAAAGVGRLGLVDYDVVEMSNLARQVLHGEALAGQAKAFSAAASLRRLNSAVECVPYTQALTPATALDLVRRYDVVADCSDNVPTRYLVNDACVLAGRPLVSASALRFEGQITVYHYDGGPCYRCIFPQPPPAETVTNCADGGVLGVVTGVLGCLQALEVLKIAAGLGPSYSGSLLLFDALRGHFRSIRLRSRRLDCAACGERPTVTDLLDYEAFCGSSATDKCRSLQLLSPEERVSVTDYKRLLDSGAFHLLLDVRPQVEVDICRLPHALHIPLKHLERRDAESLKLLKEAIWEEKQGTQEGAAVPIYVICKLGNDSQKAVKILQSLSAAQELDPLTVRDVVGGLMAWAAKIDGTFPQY
# UniProt O60934: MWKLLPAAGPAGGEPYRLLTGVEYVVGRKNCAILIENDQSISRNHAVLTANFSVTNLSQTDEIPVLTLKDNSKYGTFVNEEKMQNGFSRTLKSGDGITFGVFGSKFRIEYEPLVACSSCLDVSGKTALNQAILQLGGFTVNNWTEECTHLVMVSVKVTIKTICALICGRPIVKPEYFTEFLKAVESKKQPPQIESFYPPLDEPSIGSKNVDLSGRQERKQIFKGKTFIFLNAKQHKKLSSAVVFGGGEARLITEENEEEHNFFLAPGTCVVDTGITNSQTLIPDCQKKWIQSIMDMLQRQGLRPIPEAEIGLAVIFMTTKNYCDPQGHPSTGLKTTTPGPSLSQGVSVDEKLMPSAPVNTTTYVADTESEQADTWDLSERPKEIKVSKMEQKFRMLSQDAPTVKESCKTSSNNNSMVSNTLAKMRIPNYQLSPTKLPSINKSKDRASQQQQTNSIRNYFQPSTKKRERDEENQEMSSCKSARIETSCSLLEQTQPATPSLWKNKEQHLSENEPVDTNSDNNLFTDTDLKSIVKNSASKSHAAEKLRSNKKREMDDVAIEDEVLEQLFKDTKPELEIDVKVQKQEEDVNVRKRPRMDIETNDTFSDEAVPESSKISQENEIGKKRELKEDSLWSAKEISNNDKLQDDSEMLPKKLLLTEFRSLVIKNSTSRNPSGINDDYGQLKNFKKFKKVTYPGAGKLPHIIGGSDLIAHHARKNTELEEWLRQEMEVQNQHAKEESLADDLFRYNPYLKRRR
# UniProt O60826, whole entry: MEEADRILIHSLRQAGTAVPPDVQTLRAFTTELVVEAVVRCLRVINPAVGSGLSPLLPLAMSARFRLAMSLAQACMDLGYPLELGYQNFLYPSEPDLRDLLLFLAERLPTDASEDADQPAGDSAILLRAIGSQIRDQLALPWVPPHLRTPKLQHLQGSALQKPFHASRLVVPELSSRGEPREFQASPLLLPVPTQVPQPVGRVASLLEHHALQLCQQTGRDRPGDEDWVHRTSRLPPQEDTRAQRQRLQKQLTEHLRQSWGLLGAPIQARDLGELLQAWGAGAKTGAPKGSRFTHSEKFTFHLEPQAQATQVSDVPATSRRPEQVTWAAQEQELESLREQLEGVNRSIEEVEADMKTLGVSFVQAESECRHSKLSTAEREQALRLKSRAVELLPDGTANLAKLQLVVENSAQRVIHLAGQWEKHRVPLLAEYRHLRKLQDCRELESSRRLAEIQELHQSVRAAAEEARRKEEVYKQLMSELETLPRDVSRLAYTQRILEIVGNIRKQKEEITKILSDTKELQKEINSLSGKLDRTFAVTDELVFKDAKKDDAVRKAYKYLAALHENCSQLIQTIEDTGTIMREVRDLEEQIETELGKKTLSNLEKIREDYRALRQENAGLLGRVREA
# UniProt O75964: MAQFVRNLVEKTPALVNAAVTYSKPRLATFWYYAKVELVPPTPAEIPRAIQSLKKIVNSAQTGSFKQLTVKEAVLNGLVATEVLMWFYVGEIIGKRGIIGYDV
# UniProt O75348, whole entry: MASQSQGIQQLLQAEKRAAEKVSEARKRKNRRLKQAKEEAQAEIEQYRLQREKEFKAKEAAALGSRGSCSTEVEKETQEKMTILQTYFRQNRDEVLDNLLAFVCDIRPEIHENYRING
# ± gives the standard deviation of the averaged measurements. The list shows a part of the results, in another mix than the full data.
# Compound: Nc1ncnc2c1ncn2[C@@H]1O[C@H](COP(=O)(O)OP(=O)(O)NP(=O)(O)O)[C@@H](O)[C@H]1O [adenylyl imidodiphosphate]
# Test: NP40-soluble protein abundance relative to vehicle (solubility fold change) (ratio); higher = more soluble protein in presence of AMP-PNP
# In short: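 Eight concentrations, 0.1 to 10 mM, were tested on Jurkat crude lysate for 10 min at room temperature and then 3 min at 37 °C, in three independent experiments. The lysate was solubilised with 0.8% NP40 and benzonase, ultracentrifuged, and the supernatant TMT-labelled for LC-MS/MS. Each value is the fold change against the detergent-processed vehicle in its own replicate, from vsn-normalised intensities.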
Target,NP40-soluble protein abundance (concentration: 1mM),NP40-soluble protein abundance (concentration: 2mM),NP40-soluble protein abundance (concentration: 4mM),NP40-soluble protein abundance (concentration: 6mM),NP40-soluble protein abundance (concentration: 8mM),NP40-soluble protein abundance (concentration: 10mM)
UniProt O94985-2,1.01 ± 0.028,1.009 ± 0.006,1.02 ± 0.015,0.9869 ± 0.007,0.995 ± 0.013,0.987 ± 0.037
UniProt O75400 and related entries,1.03 ± 0.039,1.005 ± 0.0091,0.965 ± 0.041,1.01 ± 0.017,1.03 ± 0.015,1.1 ± 0.026
UniProt O95619 and related entries,1.04 ± 0.056,1.14 ± 0.12,1.1 ± 0.11,1.06 ± 0.026,1.04 ± 0.057,1.06 ± 0.021
PRPSAP2 (UniProt O60256),0.91 ± 0.07,0.85 ± 0.12,0.935 ± 0.18,0.862 ± 0.13,0.877 ± 0.16,0.85 ± 0.16
UniProt O75182 and related entries,0.981 ± 0.023,0.986 ± 0.03,1 ± 0.069,1.03 ± 0.053,1.05 ± 0.068,1.04 ± 0.063
UniProt O95644 and related entries,0.996 ± 0.018,1.02 ± 0.047,1 ± 0.03,0.984 ± 0.036,0.968 ± 0.016,1 ± 0.031
GMFG (UniProt O60234),1.023 ± 0.007,1.07 ± 0.065,1.04 ± 0.018,1.03 ± 0.019,1.03 ± 0.024,1.01 ± 0.044
MTRF1 (UniProt O75570),0.986 ± 0.023,0.948 ± 0.047,0.996 ± 0.01,0.99 ± 0.018,0.984 ± 0.033,0.968 ± 0.04
DHX16 (UniProt O60231),1.03 ± 0.014,1.031 ± 0.0054,1.03 ± 0.013,1.04 ± 0.019,1.04 ± 0.024,1.05 ± 0.043
MOCS3 (UniProt O95396),1.03 ± 0.055,1.03 ± 0.045,1.02 ± 0.021,0.982 ± 0.056,1.01 ± 0.047,1.02 ± 0.051
NBN (UniProt O60934),0.9851 ± 0.0049,1 ± 0.019,1 ± 0.037,1.01 ± 0.04,1 ± 0.029,1.04 ± 0.055
CCDC22 (UniProt O60826),0.993 ± 0.028,1.027 ± 0.008,1 ± 0.026,0.97 ± 0.042,0.95 ± 0.038,0.971 ± 0.043
UniProt O94906 and related entries,1.03 ± 0.044,0.984 ± 0.018,1.03 ± 0.077,1.07 ± 0.12,1.11 ± 0.12,1.22 ± 0.19
UniProt O75964,0.961 ± 0.051,0.95 ± 0.089,0.972 ± 0.07,1.1 ± 0.088,1.1 ± 0.032,1.1 ± 0.079
ATP6V1G1 (UniProt O75348),0.978 ± 0.043,0.988 ± 0.026,0.892 ± 0.059,0.829 ± 0.074,0.803 ± 0.023,0.803 ± 0.026
UniProt O75925 and related entries,1.01 ± 0.028,0.957 ± 0.042,1.01 ± 0.025,0.937 ± 0.0065,1.028 ± 0.0088,0.963 ± 0.032

# Full records, quoted from the list. Values in the order: NP40-soluble protein abundance (concentration: 1mM)	NP40-soluble protein abundance (concentration: 2mM)	NP40-soluble protein abundance (concentration: 4mM)	NP40-soluble protein abundance (concentration: 6mM)	NP40-soluble protein abundance (concentration: 8mM)	NP40-soluble protein abundance (concentration: 10mM)
# PRPSAP2 (UniProt O60256) in the list: 0.91 ± 0.07	0.85 ± 0.12	0.935 ± 0.18	0.862 ± 0.13	0.877 ± 0.16	0.85 ± 0.16
# CCDC22 (UniProt O60826) in the list: 0.993 ± 0.028	1.027 ± 0.008	1 ± 0.026	0.97 ± 0.042	0.95 ± 0.038	0.971 ± 0.043
